# The structures given here were assigned with low confidence; some may be wrong.
# Protein sequences, listed by entry. Tags and fused reporters are not part of them.
# UniProt P21554, whole entry: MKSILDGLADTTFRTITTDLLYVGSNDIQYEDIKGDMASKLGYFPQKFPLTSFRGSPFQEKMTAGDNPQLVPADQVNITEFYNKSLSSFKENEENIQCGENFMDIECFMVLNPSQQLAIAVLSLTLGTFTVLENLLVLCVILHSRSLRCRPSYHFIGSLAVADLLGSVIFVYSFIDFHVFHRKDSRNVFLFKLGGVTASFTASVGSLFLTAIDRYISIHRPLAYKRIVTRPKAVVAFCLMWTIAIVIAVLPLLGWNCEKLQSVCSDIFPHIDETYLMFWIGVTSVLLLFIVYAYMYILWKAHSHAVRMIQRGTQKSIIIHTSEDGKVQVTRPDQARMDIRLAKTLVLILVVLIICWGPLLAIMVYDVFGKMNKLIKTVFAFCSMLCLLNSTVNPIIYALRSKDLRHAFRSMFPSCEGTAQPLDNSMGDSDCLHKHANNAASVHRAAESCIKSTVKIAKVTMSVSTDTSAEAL
# Columns and labels:
# hCB1 receptors = hCB1 receptors (Homo sapiens, UniProt P21554); assay: CB1 cAMP assay (inhibition of forskolin-stimulated cAMP accumulation); type: cell-based; details: read-out: EC50 of 2-AG + Compound (1 μM); 2-AG in presence of 1 μM compound; forskolin 2 μM; HEK293 and/or CHO hCB1
# human CB1 (hCB1) = human CB1 (hCB1) (Homo sapiens, UniProt P21554); assay: Competition binding assay, [3H]CP55,940 displacement, hCB1 HEK293 membranes; details: up to 100 nM; [3H]CP55,940 0.7 nM; 37 °C, 60 min
# Experimental: (§1) Cell membrane preparation. Fresh or frozen HEK293 cell pellets (2×10^8 cells expressing human CB1 (hCB1) or rat CB1 (rCB1)) were resuspended in 5 ml of TME [25 mM Tris, 5 mM MgCl2, 1 mM EDTA pH 7.4] supplemented with 0.5% protease inhibitor cocktail (Sigma, St Louis, MO, USA). Cells were lysed under nitrogen cavitation for 30 min at 1000 psi on ice, centrifuged at 1000 g for 10 min, and the supernatant was collected. The pellet was washed three times with 10 ml of TME containing protease inhibitors and the combined supernatant was centrifuged at 100,000 g for 45 min at 4 °C. The resultant membrane pellet was used immediately or stored at −80 °C. Protein concentration for the resulting membrane fraction was obtained using Bradford Assay.
# Competition Binding Assay. Competition binding assays were performed in a 96-well format. Assays were carried out using [3H] CP55,940 and Tris binding buffer (50 mM Tris-HCl, 50 mM Tris-base, 0.1% BSA, pH 7.4), up to a total assay volume of 500 μL. The concentration of [^3H]CP55,940 used in our displacement assays was 0.7 nM. […] Radioactivity was quantified by liquid scintillation spectrometry. […] Ki values were determined by fitting the data to non-linear regression curve using Graph Pad Prism software.
# CB1 = assay: Saturation binding assay with [3H]CP55940, membranes from rat brain or HEK293 overexpressing hCB1; design: species or system rat or human; details: [3H]CP55940 1.58 to 50 nM, 30 °C, 1 h
# Experimental: as §1
# Saturation Binding Assay. Saturation-binding assays were performed in a 96-well format. Membrane preparations either from rat brain or HEK293 cells overexpressing hCB1 were resuspended in TME-bovine serum albumin (BSA; TME containing 0.1% BSA) and 25 ug of protein was added to each assay well. [^3H]CP55940 was diluted in TME-BSA to yield ligand concentrations ranging from 1.58 to 50 nM. […] Bound radioactivity was quantitated in a Packard Top Count Scintillation Counter. Nonspecific binding was subtracted from the total bound radioactivity to calculate specific binding of [^3H] […]
compound,measurement,setting,value
Nc1ccc(-c2[nH]c3ccccc3c2C(C[N+](=O)[O-])c2ccc(B(O)O)cc2)cc1 (stereo not drawn),EC50,hCB1 receptors,66.4 nM
same,"competition with CP-55,940",human CB1 (hCB1),"do not compete with CP-55,940"
same,"increase in the Bmax of CP-55,940",CB1,45%

# Reference: patent US20260364098A1, “HETEROARYL COMPOUNDS AS ENDOCANNABINOID SYSTEM MODULATORS AND USES THEREOF” (Northeastern University, priority 2023, published 2026)
